Laboratory results from PubChem BioAssay AID1671190 (National Center for Advancing Translational Sciences (NCATS), 2021).
In all, about 580,000 compounds went through this assay and about 6,100 (1.1%) were called active. The inconclusive results got no clear call from the source; some entries with a clear call stand among them for comparison. Calls follow the shape of the dose curve; as a rule, active = well fitted inhibition curve with a large enough effect; inconclusive = small, poorly fitted or top-dose-only effect, or another doubt; inactive = no such curve, though single readings can be large or run the other way. Potencies of inconclusive entries are doubtful fits and often do not repeat.

Protein sequences, listed by entry. Tags and fused reporters are not part of them. Lines headed by an entry give the natural chain unless they say otherwise; changes in a name come on top.
UniProt P18054: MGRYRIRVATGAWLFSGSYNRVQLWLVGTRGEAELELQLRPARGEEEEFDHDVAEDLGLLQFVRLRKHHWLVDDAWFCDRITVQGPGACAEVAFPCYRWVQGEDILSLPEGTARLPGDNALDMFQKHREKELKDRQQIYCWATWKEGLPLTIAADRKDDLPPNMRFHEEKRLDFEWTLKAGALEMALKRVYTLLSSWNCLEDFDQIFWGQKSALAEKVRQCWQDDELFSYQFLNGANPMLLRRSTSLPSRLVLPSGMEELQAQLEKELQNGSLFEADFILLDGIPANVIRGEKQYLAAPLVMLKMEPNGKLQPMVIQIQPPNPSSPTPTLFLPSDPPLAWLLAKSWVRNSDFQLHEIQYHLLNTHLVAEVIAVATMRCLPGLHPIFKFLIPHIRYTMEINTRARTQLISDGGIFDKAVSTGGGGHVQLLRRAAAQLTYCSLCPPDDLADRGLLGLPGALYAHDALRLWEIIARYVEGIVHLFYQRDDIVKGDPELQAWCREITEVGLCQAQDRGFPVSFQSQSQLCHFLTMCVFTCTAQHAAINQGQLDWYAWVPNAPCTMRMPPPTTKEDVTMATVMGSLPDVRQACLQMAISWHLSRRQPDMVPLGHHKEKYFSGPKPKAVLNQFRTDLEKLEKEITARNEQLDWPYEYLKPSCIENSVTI

The compounds below were run against Polyunsaturated fatty acid lipoxygenase ALOX12 (Homo sapiens) (UniProt P18054) (assay: Primary qHTS assay for inhibitors of human arachidonate 12S-lipoxygenase (ALOX12): Round 2). Details: purified 12hLO, xylenol orange hydroperoxide absorbance; activity change, negative = inhibition: at 108 µM (top of the series) unless noted.
Summary of the method: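 Purified human 12hLO at 150 nM in 25 mM Hepes, 0.01% Triton X-100, pH 7.0, preincubated 15 min at room temperature with compound. Reaction started with 40 uM arachidonic acid, 30 min at room temperature. Hydroperoxide measured by Fe-xylenol orange, 573/405 nm absorbance ratio.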
% is scaled to controls: 0 for no effect and ±100 for the full control effect; potency is read from the fitted curve at half-maximal effect.

Structure (SMILES) | Potency | activity change, negative = inhibition
C=CCSc1nccc(-c2nn(-c3ccc(C)cc3)ccc2=O)n1 | inconclusive: 50.1 µM [inhibitor, partial curve, poor fit] | 
COc1ccc(S(=O)(=O)N2CCc3nc4cc[nH]n4c(=O)c3C2)cc1Cl | inactive | 
O=C(CN1CCN(c2ccccn2)CC1)N1N=C(c2cc3ccccc3o2)CC1c1ccco1 (stereo unspecified) | inconclusive: 31.6 µM [inhibitor, partial curve] | 
C[C@@H]1CN(c2cc(C3CC(O)C3)ncn2)C[C@H](C)O1 (stereo partly specified) | inconclusive: 100 µM [inhibitor, partial curve, poor fit] | 
NS(=O)(=O)c1ccc(N/N=C/c2ccccc2Br)cc1 | inconclusive: 100 µM [inhibitor, partial curve, poor fit] | 
CCOC(=O)c1c(C)oc2c1c(C=NC1CCS(=O)(=O)C1)c(O)c1ccccc12 (stereo unspecified) | inactive | 
COc1ccc(S(=O)(=O)NC[C@H]2COCc3nc4ccc(C)cc4n32)cc1 | inconclusive: 31.6 µM [inhibitor, partial curve] | 
COc1cccc(NCc2cc(=O)oc3cc(OC)ccc23)c1 | inconclusive: 44.7 µM [inhibitor, partial curve, poor fit] | 
Cc1ccc(Nc2cc(C)c(C#N)c3nc4ccccc4n23)c(C)c1 | inactive | 
Cc1c(Cl)cccc1NC(=O)C1CCN(c2nc3ccccc3[nH]2)CC1 | inconclusive: 89.1 µM [inhibitor, partial curve, poor fit] | 
Cc1cccc(C(=O)Nc2cc3c(cc2SCc2ccco2)n(C)c(=O)n3C)c1 | inconclusive: 10 µM [inhibitor, full curve, poor fit] | 
O=C(NCc1noc(-c2ccco2)n1)c1ccc(Br)cc1 | inactive | 
COc1ccc(C(Nc2ccccn2)c2oc(CO)cc(=O)c2O)cc1 (stereo unspecified) | inconclusive: 7.94 µM [inhibitor, full curve, poor fit] | 
CCOC(=O)[C@]12CCCC=C1N(Cc1ccccc1)C(=O)[C@H](CC(=O)NCc1ccc(OC)c(OC)c1)C2 | inconclusive: 39.8 µM [inhibitor, partial curve] | 
CN(C)c1ncccc1CNC(=O)Cc1ccc(F)cc1 | inactive | 
Cc1ccc(S(=O)(=O)N2CCC(C(=O)N3CCC(CCc4ccc(O)cc4)CC3)CC2)c(C)c1 | inconclusive: 100 µM [inhibitor, single point] | 
COc1ccc(-c2cnc3c(NC(C)=O)cc(-c4cccc(C(=O)N(C)C)c4)cn23)cc1OC | inactive | 
Cc1cccc2[nH]cc(C3=CCN(C(=O)CCc4ccccc4)CC3)c12 | inconclusive: 31.6 µM [inhibitor, partial curve, poor fit] | 
O=C(N/C=N/OCc1ccc(Cl)cc1Cl)NOCc1ncc(C(F)(F)F)cc1Cl | inconclusive: 126 µM [inhibitor, single point] | 
CCN(CC)S(=O)(=O)c1ccc(N2CCCC2)c(NC(=O)Cc2ccc(OC)cc2)c1 | inconclusive: 44.7 µM [inhibitor, partial curve, poor fit] | 
CC(CC(C)C(=O)N1CCOCCN(C(=O)C(C)CC(C)C(=O)O)CCOCC1)C(=O)O (stereo unspecified) | inconclusive: 56.2 µM [inhibitor, partial curve, poor fit] | 

Structure (SMILES) | Potency | activity change, negative = inhibition
Cc1cc2occ(CC(=O)N(C)CC(=O)Nc3c(C)cccc3C)c2cc1C | inconclusive: 79.4 µM [inhibitor, partial curve, poor fit] | 
Cc1cc(C(=O)NCc2ccccc2Cl)c2c(C)nn(-c3cccc(F)c3)c2n1 | inconclusive: 44.7 µM [inhibitor, partial curve, poor fit] | 
Clc1cc2c(c(CSc3nc4ccccc4n4cccc34)c1)OCOC2 | inconclusive: 126 µM [inhibitor, single point] | 
O=[N+]([O-])c1cccc(-c2cc3cccc[n+]3cc2-c2cccc([N+](=O)[O-])c2)c1 | inactive | 
CC(OC(=O)c1cc(Br)ccc1O)C(=O)Nc1ccc(S(=O)(=O)N2CCCC2)cc1 (stereo unspecified) | inactive | 
CC(C)N1C[C@H](O)C[C@H]1c1nnc2n1CCN(C(=O)CC1CCCCC1)C2 | inactive | 
CCOC(=O)Cc1csc(NC(=O)NC2(C(F)(F)F)Oc3ccccc3O2)n1 | inconclusive: 39.8 µM [inhibitor, partial curve] | 
Cc1ccc(C(=O)Nc2ccc3oc(-c4ccccc4C)nc3c2)cc1 |  | inconclusive: -32.7% [inhibitor]
O=C(c1cc(CC2(NCc3ccccc3F)COC2)no1)N1CCCCC1 | inconclusive: 35.5 µM [inhibitor, partial curve, poor fit] | 
O=S(=O)(Cc1ccc(Cl)cc1)c1nc2ccccc2nc1N1CCCCC1 | inconclusive: 141 µM [inhibitor, partial curve, poor fit] | 
CC(=O)c1cccc(NC(=O)c2ccc(-c3c(C)noc3C)c3ccoc23)c1 | inconclusive: 0.112 µM [inhibitor, full curve, poor fit] | 
COc1ccc(C2C(C#N)=C(N)Oc3n[nH]c(-c4ccc(C)cc4)c32)cc1O (stereo unspecified) | inconclusive: 56.2 µM [inhibitor, partial curve, poor fit] | 
COc1cccc(NC(=O)CSc2nnc(COc3ccccc3)n2Cc2ccco2)c1 | inactive | 
Cc1ccc(CCNC(=O)C23CN(Cc4ccccc4)CC2C(c2ccc([N+](=O)[O-])cc2)=NO3)cc1 (stereo unspecified) | inconclusive: 39.8 µM [inhibitor, partial curve, poor fit] | 
CC(CS(=O)(=O)c1ccc2c(c1)NC(=O)CS2)C(=O)NCc1ccccc1Cl (stereo unspecified) | inactive | 
Cc1ccc(NS(=O)(=O)c2ccc(Cl)cc2)cc1S(=O)(=O)N(C)C | inconclusive: 79.4 µM [inhibitor, single point] | 
O=C(CCC1CCCC1)NC1CCN(c2cnn(Cc3ccccc3)c(=O)c2)CC1 | inactive | 
O=C(C1=NOC2(C1)C(=O)Nc1ccccc12)N1CCCCC1 (stereo unspecified) | inactive | 
CCOC(=O)C1=C(C)N(C2CC2)C(=O)NC1c1ccccc1OC(F)F (stereo unspecified) |  | inconclusive: -47.1% [inhibitor]
S=c1[nH]c2ccc3ccccc3c2[nH]1 | inactive | 

As entered above:
`COc1cccc(NC(=O)CSc2nnc(COc3ccccc3)n2Cc2ccco2)c1` | Potency: inactive
`O=[N+]([O-])c1cccc(-c2cc3cccc[n+]3cc2-c2cccc([N+](=O)[O-])c2)c1` | Potency: inactive
`Cc1ccc(NS(=O)(=O)c2ccc(Cl)cc2)cc1S(=O)(=O)N(C)C` | Potency: inconclusive: 79.4 µM [inhibitor, single point]
